# Laboratory results taken from the supplement of paper PMC8728848.
# The other results are listed elsewhere or left out.
# Legend:
# Test in all cases: glycan array binding signal (z-score within array); higher = stronger binding
# Conditions in all cases: glycan notation: IUPAC condensed, linker removed
# [1] = target: Gal(b1-3)GlcNAc(b1-6)[Gal(b1-3)]GalNAc
# Summary of the method: (§1)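 From the Consortium for Functional Glycomics database, 3228 arrays were curated, keeping only those whose protein sequence was available. Binding is given as a within-array Z-score averaged across arrays sharing a protein sequence and across linkers. Negative Z-scores can be read as non-binding.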
# [2] = target: Gal(b1-3)GlcNAc6S
# Summary of the method: as §1
# [3] = target: Gal(b1-3)[Fuc(a1-4)]GlcNAc
# Summary of the method: as §1
# [4] = target: Gal(b1-3)[Fuc(a1-4)]GlcNAc(b1-2)Man
# Summary of the method: as §1
# [5] = target: Gal(b1-3)[Fuc(a1-4)]GlcNAc(b1-2)Man(a1-3)[Gal(b1-3)[Fuc(a1-4)]GlcNAc(b1-2)Man(a1-6)]Man(b1-4)GlcNAc(b1-4)[Fuc(a1-6)]GlcNAc
# Summary of the method: as §1
# [6] = target: Gal(b1-3)[Fuc(a1-4)]GlcNAc(b1-3)Gal(b1-3)[Fuc(a1-4)]GlcNAc
# Summary of the method: as §1
# [7] = target: Gal(b1-3)[Fuc(a1-4)]GlcNAc(b1-3)Gal(b1-4)[Fuc(a1-3)]GlcNAc
# Summary of the method: as §1
# [8] = target: Gal(b1-3)[Fuc(a1-4)]GlcNAc(b1-6)GalNAc
# Summary of the method: as §1
# [9] = target: Gal(b1-3)[GlcNAc(b1-6)]GalNAc
# Summary of the method: as §1
# [10] = target: Gal(b1-3)[Neu5Ac(a2-6)]GalNAc
# Summary of the method: as §1
# [11] = target: Gal(b1-3)[Neu5Ac(a2-6)]GlcNAc(b1-4)Gal(b1-4)Glc
# Summary of the method: as §1
# [12] = target: Gal(b1-3)[Neu5Ac(b2-6)]GalNAc
# Summary of the method: as §1
# [13] = target: Gal(b1-4)Gal
# Summary of the method: as §1
# [14] = target: Gal(b1-4)GalNAc(a1-3)[Fuc(a1-2)]Gal(b1-4)GlcNAc
# Summary of the method: as §1
# [15] = target: Gal(b1-4)GalNAc(b1-3)[Fuc(a1-2)]Gal(b1-4)GlcNAc
# Summary of the method: as §1
# [16] = target: Gal(b1-4)Glc
# Summary of the method: as §1
# [17] = target: Gal(b1-4)Glc6S
# Summary of the method: as §1
# [18] = target: Gal(b1-4)GlcNAc
# Summary of the method: as §1
# [19] = target: Gal(b1-4)GlcNAc(a1-6)Gal(b1-4)GlcNAc
# Summary of the method: as §1
# [20] = target: Gal(b1-4)GlcNAc(b1-2)Man
# Summary of the method: as §1
# [21] = target: Gal(b1-4)GlcNAc(b1-2)Man(a1-3)Man(b1-4)GlcNAc(b1-4)GlcNAc
# Summary of the method: as §1
# [22] = target: Gal(b1-4)GlcNAc(b1-2)Man(a1-3)[Gal(b1-4)GlcNAc(b1-2)Man(a1-6)]Man(b1-4)GlcNAc(b1-4)GlcNAc
# Summary of the method: as §1
# [23] = target: Gal(b1-4)GlcNAc(b1-2)Man(a1-3)[Gal(b1-4)GlcNAc(b1-2)Man(a1-6)]Man(b1-4)GlcNAc(b1-4)[Fuc(a1-6)]GlcNAc
# Summary of the method: as §1
# [24] = target: Gal(b1-4)GlcNAc(b1-2)Man(a1-3)[Gal(b1-4)GlcNAc(b1-2)Man(a1-6)][Gal(b1-4)GlcNAc(b1-4)]Man(b1-4)GlcNAc(b1-4)[Fuc(a1-6)]GlcNAc
# Summary of the method: as §1
# [25] = target: Gal(b1-4)GlcNAc(b1-2)Man(a1-3)[Gal(b1-4)GlcNAc(b1-2)Man(a1-6)][GlcNAc(b1-4)]Man(b1-4)GlcNAc(b1-4)[Fuc(a1-6)]GlcNAc
# Summary of the method: as §1
# [26] = target: Gal(b1-4)GlcNAc(b1-2)Man(a1-3)[GlcNAc(b1-2)Man(a1-6)]Man(b1-4)GlcNAc(b1-4)GlcNAc
# Summary of the method: as §1
# [27] = target: Gal(b1-4)GlcNAc(b1-2)Man(a1-3)[GlcNAc(b1-4)][Gal(b1-4)GlcNAc(b1-2)Man(a1-6)]Man(b1-4)GlcNAc(b1-4)GlcNAc
# Summary of the method: as §1
# [28] = target: Gal(b1-4)GlcNAc(b1-2)Man(a1-3)[Man(a1-6)]Man(b1-4)GlcNAc(b1-4)GlcNAc
# Summary of the method: as §1
# [29] = target: Gal(b1-4)GlcNAc(b1-2)Man(a1-6)Man(b1-4)GlcNAc(b1-4)GlcNAc
# Summary of the method: as §1
# [30] = target: Gal(b1-4)GlcNAc(b1-2)Man(a1-6)[GlcNAc(b1-2)Man(a1-3)]Man(b1-4)GlcNAc(b1-4)GlcNAc
# Summary of the method: as §1
# [31] = target: Gal(b1-4)GlcNAc(b1-2)Man(a1-6)[Man(a1-3)]Man(b1-4)GlcNAc(b1-4)GlcNAc
# Summary of the method: as §1
# [32] = target: Gal(b1-4)GlcNAc(b1-2)[Gal(b1-4)GlcNAc(b1-4)]Man(a1-3)[Gal(b1-4)GlcNAc(b1-2)Man(a1-6)]Man(b1-4)GlcNAc(b1-4)GlcNAc
# Summary of the method: as §1
# [33] = target: Gal(b1-4)GlcNAc(b1-2)[Gal(b1-4)GlcNAc(b1-4)]Man(a1-3)[Gal(b1-4)GlcNAc(b1-2)[Gal(b1-4)GlcNAc(b1-6)]Man(a1-6)]Man(b1-4)GlcNAc(b1-4)GlcNAc
# Summary of the method: as §1
# [34] = target: Gal(b1-4)GlcNAc(b1-2)[Gal(b1-4)GlcNAc(b1-4)]Man(a1-3)[GlcNAc(b1-4)][Gal(b1-4)GlcNAc(b1-2)Man(a1-6)]Man(b1-4)GlcNAc(b1-4)GlcNAc
# Summary of the method: as §1
# [35] = target: Gal(b1-4)GlcNAc(b1-2)[Gal(b1-4)GlcNAc(b1-4)]Man(a1-3)[GlcNAc(b1-4)][Gal(b1-4)GlcNAc(b1-2)[Gal(b1-4)GlcNAc(b1-6)]Man(a1-6)]Man(b1-4)GlcNAc(b1-4)GlcNAc
# Summary of the method: as §1
# [36] = target: Gal(b1-4)GlcNAc(b1-2)[Gal(b1-4)GlcNAc(b1-6)]Man(a1-6)[Gal(b1-4)GlcNAc(b1-2)Man(a1-3)]Man(b1-4)GlcNAc(b1-4)GlcNAc
# Summary of the method: as §1
# [37] = target: Gal(b1-4)GlcNAc(b1-2)[Gal(b1-4)GlcNAc(b1-6)]Man(a1-6)[Gal(b1-4)GlcNAc(b1-2)Man(a1-3)]Man(b1-4)GlcNAc(b1-4)[Fuc(a1-6)]GlcNAc
# Summary of the method: as §1
# [38] = target: Gal(b1-4)GlcNAc(b1-2)[Gal(b1-4)GlcNAc(b1-6)]Man(a1-6)[GlcNAc(b1-4)][Gal(b1-4)GlcNAc(b1-2)Man(a1-3)]Man(b1-4)GlcNAc(b1-4)GlcNAc
# Summary of the method: as §1
# [39] = target: Gal(b1-4)GlcNAc(b1-2)[Gal(b1-4)GlcNAc(b1-6)]Man(a1-6)[GlcNAc(b1-4)][Gal(b1-4)GlcNAc(b1-2)[Gal(b1-4)GlcNAc(b1-4)]Man(a1-3)]Man(b1-4)GlcNAc(b1-4)[Fuc(a1-6)]GlcNAc
# Summary of the method: as §1
# [40] = target: Gal(b1-4)GlcNAc(b1-3)Gal(b1-3)GalNAc
# Summary of the method: as §1
# [41] = target: Gal(b1-4)GlcNAc(b1-3)Gal(b1-3)GlcNAc
# Summary of the method: as §1
# [42] = target: Gal(b1-4)GlcNAc(b1-3)Gal(b1-4)Glc
# Summary of the method: as §1
# [43] = target: Gal(b1-4)GlcNAc(b1-3)Gal(b1-4)GlcNAc
# Summary of the method: as §1
# [44] = target: Gal(b1-4)GlcNAc(b1-3)Gal(b1-4)GlcNAc(b1-2)Man(a1-3)[Gal(b1-4)GlcNAc(b1-3)Gal(b1-4)GlcNAc(b1-2)Man(a1-6)]Man(b1-4)GlcNAc(b1-4)GlcNAc
# Summary of the method: as §1
# [45] = target: Gal(b1-4)GlcNAc(b1-3)Gal(b1-4)GlcNAc(b1-2)Man(a1-3)[Gal(b1-4)GlcNAc(b1-3)Gal(b1-4)GlcNAc(b1-2)Man(a1-6)]Man(b1-4)GlcNAc(b1-4)[Fuc(a1-6)]GlcNAc
# Summary of the method: as §1
binder,measurement,setting,value
"Awp3 (Candida glabrata), B4UN32 (protein) MISFVTLLAILGLLSISWADQTVRSVAGDQRVTDPVIVGDNSILDYYGGSNYDFSNNFEIGRGTLYIGKESYFSSFQSAPTDVPNSFHLLIKNTNNLQNNGQFIIENIKRHANQCSNSSIQVFPINFQNDGEFEIISGGVEGRCCLPTSVIAPQNFLNNGKFYYKVLTDTGSIYSGSCMQNVDIGASTTTTVNNNLWEFTGSINAQINGAVSGAAQINLDGSNMFVNANTFSGQVVNLINGGSFLQTSDPLSNIVVINGLGTSDTGVTSIAVKGKGKSFTYNPSSGIVKLTTVEGKTYAYQIGCGYNTKKFITNNDSGASYESADNFFVLTYSEPYSPQTCQLENSSIFSSNFISTSTSSSSSSSSASSLPSSMSSSLPSSLSSSLSSSLSSSMSSSMSSLFIIPPPYTTTRSSGSSIIDTEIVSFYSTTDSPGHTITGTTTTTLYGPHTHSSVSTPSSSSESSTTSNSSIESSSLPHTSVSSTPESSITPSSNTISSSPTSDFSSVQSSSIMESSSVVASSSVINSSSIVDSSSSSASSLPSSMSSSLSSSMSSSLPSSMSSSLSSSLSSSLSSSMSSSMSSLFIIPPPYTTTRSSGSSIIDTEIVSFYSTTDSPGHTITGTTTTTLYGPHTHSSVSTPSSSSESSTTSNSSIESSSLPHTSVSSTPESSITPSSNTISSSPTSDFSSVQSSSIMESSSVVASSSVINSSSIVDSSSSSASSLPSSMPSSLPSSMSSSLSSSMSSSLSSSLSSSLSSSMSSSMSSLFIIPPPYTTTRSSGSSIIDTEIVSFYSTTDSPGHTITGTTTTTLYGPHTHSSVSTPSSSSESSTTSNSSIESSSLPHTSVSSTPESSITPSSNTISSSPTSDFSSVQSSSIMESSSVVASSSATQSSSVINSSSIVDSSSSSASSLPSSMPSSLPSSLSSSLSSSLSSSMSSSMSSLFIIPPPYTTTRSSGSSIIDTEIVSFYSTTDSPGHTITGTTTTTLYESSIYSSSSSTIQESELSNTSRTTMTSNSSVSISSTSSRSSFSNTKSSTIVISQSASLPDSKTDIILSTSSNIGYSSRSLLSDLGTSISDSDIHHSVLHSTESYSSNESGTNPFTSIASLSNFIPESSSHTSTALGSENSVISSDILTTMSHPVATNSGDKPTTPKRSEQVSTTMTSSGPTPDTSSFDTDGMSAYSRPEFTTNSLEVNKSSTSQLGNNKQTFSNLQLESTRPHSENEVDNNTRLLQSIQQSSTYGTNNVNPLSPTGSISIPLTEDGQGDNNNWNSPATNDLCTQISFNLTATTITVTDRITITDSIHDISSEVITSYIYQTIVDQKTVTQTVDGKSLANKMSSIPKPSSRSLIQPQPPVAIELQEGAASTSRVSLVSLFISIILVLL",glycan array binding signal (z-score),[1],-0.513
same,glycan array binding signal (z-score),[2],-0.144
same,glycan array binding signal (z-score),[3],-0.703
same,glycan array binding signal (z-score),[4],1.38
same,glycan array binding signal (z-score),[5],-0.666
same,glycan array binding signal (z-score),[6],-0.339
same,glycan array binding signal (z-score),[7],-0.052
same,glycan array binding signal (z-score),[8],-0.102
same,glycan array binding signal (z-score),[9],0.061
same,glycan array binding signal (z-score),[10],0.147
same,glycan array binding signal (z-score),[11],-0.676
same,glycan array binding signal (z-score),[12],0.392
same,glycan array binding signal (z-score),[13],0.261
same,glycan array binding signal (z-score),[14],0.375
same,glycan array binding signal (z-score),[15],-0.76
same,glycan array binding signal (z-score),[16],0.406
same,glycan array binding signal (z-score),[17],-0.023
same,glycan array binding signal (z-score),[18],0.048
same,glycan array binding signal (z-score),[19],-0.116
same,glycan array binding signal (z-score),[20],-1.35
same,glycan array binding signal (z-score),[21],-1.86
same,glycan array binding signal (z-score),[22],-0.701
same,glycan array binding signal (z-score),[23],1.08
same,glycan array binding signal (z-score),[24],-0.746
same,glycan array binding signal (z-score),[25],1.4
same,glycan array binding signal (z-score),[26],-1.06
same,glycan array binding signal (z-score),[27],-0.899
same,glycan array binding signal (z-score),[28],-0.338
same,glycan array binding signal (z-score),[29],-0.42
same,glycan array binding signal (z-score),[30],0.07
same,glycan array binding signal (z-score),[31],0.258
same,glycan array binding signal (z-score),[32],-0.788
same,glycan array binding signal (z-score),[33],-0.258
same,glycan array binding signal (z-score),[34],-0.635
same,glycan array binding signal (z-score),[35],-1.71
same,glycan array binding signal (z-score),[36],0.708
same,glycan array binding signal (z-score),[37],1.49
same,glycan array binding signal (z-score),[38],0.134
same,glycan array binding signal (z-score),[39],0.333
same,glycan array binding signal (z-score),[40],-0.84
same,glycan array binding signal (z-score),[41],1.74
same,glycan array binding signal (z-score),[42],0.234
same,glycan array binding signal (z-score),[43],-1.02
same,glycan array binding signal (z-score),[44],1.18
same,glycan array binding signal (z-score),[45],0.352
